# Reference: PubChem BioAssay AID540256 (National Center for Advancing Translational Sciences (NCATS), 2011)
# Hit rate of the full screen: of about 300,000 compounds, about 3,700 (1.2%) were called active. Inconclusive results, whose numbers are uncertain, are shown with a selection of clear calls. Calls follow the shape of the full dose curve; tested in HEK293 cells. A potency beside an inconclusive call is a rough fit, not a confirmed value.
# Test: qHTS for Inhibitors of binding or entry into cells for Lassa Virus; also: nearly all actives have a fitted effect of over 50% in size
# Settings: Lassa virus pseudotype entry inhibition, cell reporter; series mostly up to 37.9 µM
# Potency is read from the fitted curve at half-maximal effect.
row,Structure (SMILES),Potency
1,C=CCN1C(c2ccc(OCC)cc2)=CS/C1=C(\C#N)c1nnc2n1CCCCC2,"inconclusive: 29.1 µM [inhibitor, single point]"
2,CCOC(=O)c1c(Nc2cc(C)cc(C)c2)nnc(-c2ccccc2)c1-c1ccccc1,"inconclusive: 35.5 µM [inhibitor, single point]"
3,Cc1ccn2c(c1)nc(=S)n2C(=O)c1ccccc1,"inconclusive: 5.8 µM [activator, partial curve, poor fit]"
4,C=CCn1c(/N=C/c2ccc(N(C)C)cc2)nc2ccccc21,inactive
5,CCOc1ccc(Nc2nc(N)nc(CN3CCN(c4ccccc4F)CC3)n2)cc1,"inconclusive: 35.5 µM [inhibitor, single point]"
6,Cc1ccc(Nc2nc(N)nc(CN3CCN(C)CC3)n2)cc1,"inconclusive: 20.6 µM [activator, partial curve, poor fit]"
7,O=C(Oc1cccc(-n2cnnn2)c1)c1ccco1,inactive
8,COc1ccc2c(CC(=O)N3CCc4cc(OC)c(OC)cc4C3)coc2c1,"inconclusive: 4.61 µM [inhibitor, partial curve]"
9,COc1ccc(C(=O)OCC(=O)NCC2CCCCC2)c(OC)c1,"inconclusive: 7.08 µM [inhibitor, full curve, poor fit]"
10,Cc1cccc(CNC(=O)c2ccc3c(c2)N(C)C(=O)C2CCCCN32)c1 (stereo not given),"inconclusive: 35.5 µM [inhibitor, single point]"
11,CC1(C)Cc2cccc(OCC(=O)N3CCN(S(=O)(=O)c4ccccc4)CC3)c2O1,"inconclusive: 7.94 µM [inhibitor, partial curve, poor fit]"
12,Cn1c(N)c(Br)c(-c2ccc(F)cc2)c(C#N)c1=O,"inconclusive: 0.447 µM [inhibitor, partial curve, poor fit]"
13,O=C(CSc1nccc(=O)[nH]1)Nc1ccc2c(c1)OCCO2,inactive
14,COc1ccc(-c2csc3ncnc(N4CCN(c5ccccc5OC)CC4)c23)cc1,"inconclusive: 10 µM [inhibitor, partial curve, poor fit]"
15,CCCCCCCCNC(C)C(O)c1ccc(SC(C)C)cc1 (stereo not given),"inconclusive: 16.4 µM [inhibitor, single point]"
16,Nc1ccc(Cc2nc3cc4ccccc4cc3[nH]2)cc1,active: 2.59 µM
17,CC(=O)NS(=O)(=O)c1ccc(NC(=O)c2ccc3c(c2)C(=O)N(CCC(C)C)C3=O)cc1,inactive
18,COc1cccc2cc(C(N)=O)/c(=N\NC(=O)c3ccccc3)oc12,"inconclusive: 11.2 µM [inhibitor, single point]"
19,C/C(=N\NC(=O)C1CC1)c1ccc(C)c(C)c1,"inconclusive: 5.62 µM [inhibitor, single point]"
20,COc1ccc(N2CC(NC(=O)N3CCc4ccccc43)CC2=O)cc1OC (stereo not given),"inconclusive: 6.31 µM [inhibitor, single point]"
21,COc1cc2[nH]c(=O)n(CCCCCC(=O)N3CCN(c4ccccc4)CC3)c(=O)c2cc1OC,"inconclusive: 29.1 µM [inhibitor, single point]"
22,O=C(Nc1cnn(C23CC4CC(CC(C4)C2)C3)c1)c1cnn2c(C(F)(F)F)cc(-c3ccco3)nc12,"inconclusive: 29.1 µM [inhibitor, partial curve, poor fit]"

# Shown tab-delimited: part of the list above
row	Structure (SMILES)	Potency
6	Cc1ccc(Nc2nc(N)nc(CN3CCN(C)CC3)n2)cc1	inconclusive: 20.6 µM [activator, partial curve, poor fit]
7	O=C(Oc1cccc(-n2cnnn2)c1)c1ccco1	inactive
8	COc1ccc2c(CC(=O)N3CCc4cc(OC)c(OC)cc4C3)coc2c1	inconclusive: 4.61 µM [inhibitor, partial curve]
9	COc1ccc(C(=O)OCC(=O)NCC2CCCCC2)c(OC)c1	inconclusive: 7.08 µM [inhibitor, full curve, poor fit]
10	Cc1cccc(CNC(=O)c2ccc3c(c2)N(C)C(=O)C2CCCCN32)c1 (stereo not given)	inconclusive: 35.5 µM [inhibitor, single point]

# The listing continues.

row,Structure (SMILES),Potency
1,O=c1c2cccnc2[nH]c(=S)n1CCCN1CCN(c2ccccc2F)CC1,"inconclusive: 2.82 µM [inhibitor, partial curve, poor fit]"
2,Cc1ccc(S(=O)(=O)NC(=NCC(=O)O)c2ccccc2)cc1,inactive
3,Cc1c(NC(=S)NC(=O)c2ccc(COc3ccccc3)cc2)cccc1C(=O)O,"inconclusive: 5.62 µM [activator, full curve]"
4,COc1ccc(N(C)S(=O)(=O)c2cccc3cccnc23)c(OC)c1,"inconclusive: 9.2 µM [inhibitor, partial curve, poor fit]"
5,CC(C)(C)c1ccc(-c2csc(NNC3=NCCCCC3)n2)cc1,"inconclusive: 11.6 µM [inhibitor, partial curve, poor fit]"
6,COc1cccc2c1Oc1ncccc1N(C(=O)Nc1cccc(Cl)c1)C2,"inconclusive: 12.6 µM [activator, single point]"
7,C[C@H]1O[C@@H](O[C@H]2[C@@H](O)C[C@H](O[C@H]3[C@@H](O)C[C@H](O[C@H]4CC[C@@]5(C)[C@H](CC[C@@H]6[C@@H]5CC[C@]5(C)[C@@H](C7=CC(=O)OC7)CC[C@]65O)C4)O[C@@H]3C)O[C@@H]2C)C[C@H](O)[C@@H]1O,active: 0.206 µM
8,Cc1cccc(C(=O)N(Cc2nc3ccccc3c(=O)[nH]2)C2CCCCC2)c1,inactive
9,OC(C1=CC(=Cc2ccncc2)c2ccccc21)c1ccncc1 (stereo not given),inactive
10,COc1ccc(NC(=O)C2CCC(=O)N2C(=O)OCc2ccccc2)cc1 (stereo not given),inactive
11,Cc1ccc(NC(=S)NCCSc2ccc(Cl)cc2)cc1,inactive
12,COc1ccc(NC(=O)c2sc3nc4c(cc3c2N)CCCCCC4)cc1OC,inactive
13,COc1cc(S(=O)(=O)Nc2cccc(C)c2)ccc1NC(=O)c1cccnc1,"inconclusive: 10 µM [inhibitor, partial curve, poor fit]"
14,Cc1ccccc1NC(=O)c1ccc(F)c(S(=O)(=O)N(C)C2CCCCC2)c1,"inconclusive: 8.91 µM [inhibitor, single point]"
15,Cc1nc(-c2ccc(C)c(S(=O)(=O)N3CCC(C(=O)Nc4ccc(Cl)cc4)CC3)c2)no1,"inconclusive: 17.8 µM [inhibitor, single point]"
16,CCOC(=O)c1[nH]c(C)c(C(=O)NCCC2=CCCCC2)c1C,inactive
17,O=C(NCc1cccs1)c1ccc(CSc2nc3cccnc3n2Cc2ccccc2)cc1,"inconclusive: 35.5 µM [inhibitor, single point]"
18,COc1ccccc1-n1cnnc1SCC(=O)N1CCOCC1,inactive
19,O=C1C2=C(Nc3ccccc3SC2c2ccccc2C(F)(F)F)c2ccccc21 (stereo not given),inactive
20,CC(C)CN(C(=O)COC(=O)CCCc1nc2ccccc2s1)c1c(N)n(Cc2ccccc2)c(=O)[nH]c1=O,"inconclusive: 35.5 µM [inhibitor, single point]"
21,O=C1CSC2(N1)C1CC3CC(C1)CC2C3 (stereo not given),"inconclusive: 35.5 µM [inhibitor, partial curve, poor fit]"
22,Cc1cc(NC(=O)COC(=O)c2c(C)nn(Cc3ccccc3Cl)c2Cl)no1,"inconclusive: 4.61 µM [inhibitor, full curve, poor fit]"

row,Structure (SMILES),Potency
1,O=C(CCn1c(=O)c2cccn2c2ccccc21)Nc1ccc(F)cc1,"inconclusive: 25.1 µM [inhibitor, single point]"
2,Cc1c(/C=N/NC(=O)CNc2ccccc2)c2ccccn2c1C(=O)c1ccccc1,"inconclusive: 7.94 µM [inhibitor, partial curve, poor fit]"
3,O=C(N/N=C/c1ccc([N+](=O)[O-])o1)c1cc(-c2ccc(-c3ccccc3)cc2)nc2ccccc12,"inconclusive: 0.562 µM [inhibitor, full curve, poor fit]"
4,Cc1ccc(C)c(CN2C(=O)c3ccccc3S(=O)c3ccc(C(=O)N4CCN(c5ccccn5)CC4)cc32)c1 (stereo not given),"inconclusive: 1 µM [inhibitor, full curve, poor fit]"
5,N#Cc1cc(C(=O)c2cc(Br)ccc2O)cn(Cc2ccccc2)c1=O,"inconclusive: 22.4 µM [inhibitor, single point]"
6,Cc1nn(C)c(C)c1S(=O)(=O)N(CC(=O)N1CCN(c2ccccc2)CC1)c1ccc(C(C)C)cc1,inactive
7,COc1ccc(OC)c(NC(=O)CCN2CC(C)OC(C)C2)c1 (stereo not given),inactive
8,O=C(COc1ccc(Cl)cc1)NCCc1csc(-c2ccc(F)cc2)n1,inactive
9,CCOc1cc(/C=N/NC(=O)COc2ccc(C)cc2)ccc1OC(=O)c1cccs1,"inconclusive: 20.6 µM [inhibitor, partial curve]"
10,CCN(CC)C(=O)c1sc2c(c1C)c(=O)n(-c1ccc(Cl)c(Cl)c1)c(=O)n2CC(=O)Nc1cccc(OC)c1,inactive
11,O=S(=O)(Cc1ccccc1)C1CCCCC1O (stereo not given),"inconclusive: 35.5 µM [activator, single point]"
12,Cc1ccc(NC(=O)Cn2c(-c3ccc(F)cc3)cnc2SCC(=O)Nc2c(C)cccc2C)cc1,"inconclusive: 25.1 µM [inhibitor, single point]"
13,COc1ccc(C(=O)NCC(c2ccc3c(c2)OCO3)N2CCN(c3ccc(OC)cc3)CC2)cc1 (stereo not given),"inconclusive: 2.51 µM [inhibitor, full curve, poor fit]"
14,Nc1nnnn1/N=C/c1ccc(O)cc1,inactive
15,O=C(Nc1ccccc1F)c1ccc(-c2ccccc2)s1,"inconclusive: 11.2 µM [activator, partial curve, poor fit]"
16,CCOC(=O)CSc1nc(C)c(C(C)=O)cc1C#N,"inconclusive: 0.259 µM [inhibitor, single point]"
17,O=C(NNC(=O)c1ccncc1)Nc1ccc(N=Nc2ccccc2)cc1,inactive
18,COc1ccc(S(=O)(=O)N2CCCCC2)cc1NC(=O)c1ccc2ccccc2n1,inactive
19,COc1cc(/C=C2\N=C(c3c(-c4ccccc4)noc3C)OC2=O)ccc1OC(C)=O,inactive
20,Cc1ccc(-c2nn(-c3ccccc3)cc2C2CC(c3cccs3)=NN2C(=O)CCCC(=O)O)cc1 (stereo not given),"inconclusive: 29.1 µM [inhibitor, single point]"
21,CC(Oc1ccc(Cl)cc1Cl)C(=O)Nc1cccc(O)c1 (stereo not given),"inconclusive: 6.31 µM [inhibitor, partial curve, poor fit]"
